The values below come from article PMC3161941.

Sequences of proteins named here, by UniProt entry; tags and fusion partners are left off.
UniProt P28482: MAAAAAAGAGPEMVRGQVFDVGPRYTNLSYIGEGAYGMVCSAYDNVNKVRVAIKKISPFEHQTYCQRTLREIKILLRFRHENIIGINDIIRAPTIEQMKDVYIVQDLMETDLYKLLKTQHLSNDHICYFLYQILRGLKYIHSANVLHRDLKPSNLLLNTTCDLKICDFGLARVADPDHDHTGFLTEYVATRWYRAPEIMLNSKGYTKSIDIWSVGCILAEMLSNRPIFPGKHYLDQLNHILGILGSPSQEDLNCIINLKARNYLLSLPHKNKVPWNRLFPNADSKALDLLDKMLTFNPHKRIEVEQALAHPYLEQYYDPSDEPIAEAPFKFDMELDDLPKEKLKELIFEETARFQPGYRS
UniProt P39745: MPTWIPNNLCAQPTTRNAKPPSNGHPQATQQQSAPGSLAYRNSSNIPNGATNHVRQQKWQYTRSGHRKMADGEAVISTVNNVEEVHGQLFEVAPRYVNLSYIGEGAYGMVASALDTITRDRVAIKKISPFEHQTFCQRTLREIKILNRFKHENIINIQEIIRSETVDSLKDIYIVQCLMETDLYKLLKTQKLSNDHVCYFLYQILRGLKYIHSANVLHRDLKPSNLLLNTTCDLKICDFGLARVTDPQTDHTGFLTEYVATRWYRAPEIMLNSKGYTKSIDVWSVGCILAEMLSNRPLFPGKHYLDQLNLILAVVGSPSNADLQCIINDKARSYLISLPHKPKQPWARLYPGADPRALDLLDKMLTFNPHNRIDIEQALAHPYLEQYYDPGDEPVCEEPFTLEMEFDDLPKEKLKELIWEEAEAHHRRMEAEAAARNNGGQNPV

Assay [1] addresses T1, LIP-1 (C. elegans MAPK phosphatase) fused to the Gal4 DNA binding domain (C. elegans) (UniProt V6CIV8).
T1 sequence: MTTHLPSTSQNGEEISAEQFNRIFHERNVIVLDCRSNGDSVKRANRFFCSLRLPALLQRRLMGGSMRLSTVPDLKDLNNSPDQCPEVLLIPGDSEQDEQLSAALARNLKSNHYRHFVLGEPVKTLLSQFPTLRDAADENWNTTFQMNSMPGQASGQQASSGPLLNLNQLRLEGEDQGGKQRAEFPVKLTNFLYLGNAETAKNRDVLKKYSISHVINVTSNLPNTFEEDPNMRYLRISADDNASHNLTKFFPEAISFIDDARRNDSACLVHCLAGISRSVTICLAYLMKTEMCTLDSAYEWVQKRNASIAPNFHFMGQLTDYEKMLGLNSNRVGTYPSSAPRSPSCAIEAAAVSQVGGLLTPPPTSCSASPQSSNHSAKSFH
Put plainly: two-hybrid; Gal4 system (pGBK-T7 and pGAD-T7 fusions), diploid yeast from mating pJ69-4A and pJ69-4alpha; growth on -Leu -Trp -His -Ade after 72 hrs at 30°C and beta-galactosidase activity.

For assay [2], the target named is T2, human DUSP6 fused to the Gal4 DNA binding domain (human) (UniProt Q16828).
T2 sequence: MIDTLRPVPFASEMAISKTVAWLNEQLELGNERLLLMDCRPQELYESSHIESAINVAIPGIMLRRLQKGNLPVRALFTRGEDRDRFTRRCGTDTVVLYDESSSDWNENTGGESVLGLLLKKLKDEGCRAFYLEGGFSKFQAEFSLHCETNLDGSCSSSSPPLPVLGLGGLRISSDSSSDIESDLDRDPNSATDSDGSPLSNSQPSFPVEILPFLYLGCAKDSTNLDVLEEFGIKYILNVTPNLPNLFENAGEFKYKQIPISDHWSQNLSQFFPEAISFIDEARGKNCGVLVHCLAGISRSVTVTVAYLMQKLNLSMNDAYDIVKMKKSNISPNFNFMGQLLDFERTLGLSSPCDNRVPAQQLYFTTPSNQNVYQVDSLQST
Described as above.

No constants are given. Whether binding was seen depends on the method and setting. Some binding calls cover weakened binding; strength is not graded here. Sequences can lack the tags named with a protein.

“mammalian ERK2 fused to the Gal4 activation domain (from UniProt P28482 1-360) (enzyme)”: in assay [1], the binding result is reported as “binds”.

“MPK-1B (C. elegans ERK orthologue, larger germline isoform) fused to the Gal4 activation domain (from UniProt P39745 1-444) (enzyme)”: the binding result in assay [2] and in assay [1] was “binds” each time.
